Data published in article PMC11747885, “Potent inhibitors of the human RNA ligase Rlig1 highlights its role in RNA integrity maintenance under oxidative cellular stress” (Chemical Science, 2025).
Where “and” joins values, the source holds several entries; their conditions need not be identical. Equal entries are not always repeated. Further values from the same series stand in other lists.

Tested on: HEK293 cells
Test: Cell viability assay of HEK293 cells treated with inhibitors and menadione
Assay type: cell-based, human
Settings: w/o Menadione
[1] = 15 µM compound, 20240508 plate 012
[2] = 15 µM compound, 20240508 plate 013
[3] = 15 µM compound, 20240515 plate 014
[4] = 15 µM compound, 20240515 plate 015
[5] = 30 µM compound, 20240508 plate 013
[6] = 30 µM compound, 20240515 plate 014
[7] = 30 µM compound, 20240515 plate 015

## Nc1nccc(Nc2ccc(NC(=O)c3ccc(Nc4ccnc5ccccc45)cc3)cc2)n1 [Compound 26]
[1]
  Cell viability raw signal, technical replicates: 295160 and 291000 and 306610 and 315750
[2]
  Cell viability raw signal, technical replicates: 318330 and 382250 and 331430 and 341500
[3]
  Cell viability raw signal, technical replicates: 250630 and 277070 and 278420 and 291070
[4]
  Cell viability raw signal, technical replicates: 225790 and 244140 and 209910 and 233720
30 µM compound, 20240508 plate 012
  Cell viability raw signal, technical replicates: 178520 and 177190 and 190990 and 182770
[5]
  Cell viability raw signal, technical replicates: 197380 and 188480 and 192620 and 197570
[6]
  Cell viability raw signal, technical replicates: 195430 and 197940 and 209200 and 205950

## Nc1cc(Nc2ccc(NC(=O)c3ccc(Nc4ccnc5ccccc45)cc3)cc2)ccn1 [Compound 36]
[1]
  Cell viability raw signal, technical replicates: 390930 and 375230 and 448500 and 443430
[2]
  Cell viability raw signal, technical replicates: 394180 and 392840 and 391700 and 389320
[3]
  Cell viability raw signal, technical replicates: 392830 and 387940 and 370750 and 396460
[4]
  Cell viability raw signal, technical replicates: 354410 and 435540 and 345790 and 416620
[5]
  Cell viability raw signal, technical replicates: 362770 and 369030 and 365650 and 461440
[6]
  Cell viability raw signal, technical replicates: 354280 and 363230 and 371180 and 376730
[7]
  Cell viability raw signal, technical replicates: 326510 and 332180 and 340410 and 339810

## Cc1cc(Nc2ccc(NC(=O)c3ccc(Nc4ncnc5ccccc45)cc3)cc2)nc(N)n1 [Compound 45]
[2]
  Cell viability raw signal, technical replicates: 375940 and 362170 and 356400 and 364260
[3]
  Cell viability raw signal, technical replicates: 329510 and 330750 and 330400 and 339930
[4]
  Cell viability raw signal, technical replicates: 350650 and 339230 and 350070 and 339430

## Nc1nccc(Nc2ccc(NC(=O)c3ccc(Nc4ncnc5ccccc45)cc3)cc2)n1 [Compound 47]
[1]
  Cell viability raw signal, technical replicates: 442020 and 407540 and 412630 and 398890
[2]
  Cell viability raw signal, technical replicates: 390150 and 392520 and 393400 and 396640
[3]
  Cell viability raw signal, technical replicates: 350590 and 367550 and 349910 and 369710
[4]
  Cell viability raw signal, technical replicates: 355740 and 361450 and 338520 and 364520
[5]
  Cell viability raw signal, technical replicates: 326280 and 331870 and 354040 and 345370
[6]
  Cell viability raw signal, technical replicates: 327440 and 313220 and 342900 and 327190
[7]
  Cell viability raw signal, technical replicates: 308600 and 311450 and 325210 and 325320
